Holding throughout (assay): co-IP; 3 mg ASB-14-extracted placental membranes mixed overnight at 6-8 C with Dynabeads M-280 charged with VEGFR2, MDMX or PICALM antibody; washed in buffer with 1% ASB-14; eluted with SDS-DTT at 95 C; eluates probed by western blot
The target in experiment [1] is Vascular endothelial growth factor receptor 2 (human (endogenous in placenta)) (UniProt P35968).
In experiment [2] the target is T1, Phosphatidylinositol-binding clathrin assembly protein (human (endogenous in placenta)) (UniProt Q13492).
T1 sequence: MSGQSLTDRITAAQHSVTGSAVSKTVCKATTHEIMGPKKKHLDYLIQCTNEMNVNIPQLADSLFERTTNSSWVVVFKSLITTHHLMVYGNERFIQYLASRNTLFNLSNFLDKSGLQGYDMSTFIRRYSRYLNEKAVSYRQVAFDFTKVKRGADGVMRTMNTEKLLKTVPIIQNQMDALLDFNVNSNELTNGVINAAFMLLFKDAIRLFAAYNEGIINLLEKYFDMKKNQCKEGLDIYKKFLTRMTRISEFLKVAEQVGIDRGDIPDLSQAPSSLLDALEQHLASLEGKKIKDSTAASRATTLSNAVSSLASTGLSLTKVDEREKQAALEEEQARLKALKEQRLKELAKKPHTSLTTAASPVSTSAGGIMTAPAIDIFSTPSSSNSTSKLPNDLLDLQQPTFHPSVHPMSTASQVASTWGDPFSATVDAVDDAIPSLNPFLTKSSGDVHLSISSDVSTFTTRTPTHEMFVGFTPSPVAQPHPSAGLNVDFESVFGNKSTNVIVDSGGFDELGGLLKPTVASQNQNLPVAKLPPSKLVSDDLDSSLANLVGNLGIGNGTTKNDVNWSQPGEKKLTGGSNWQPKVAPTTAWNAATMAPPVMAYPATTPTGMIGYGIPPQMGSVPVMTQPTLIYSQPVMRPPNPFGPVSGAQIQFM

Sequences of proteins named here, by UniProt entry; tags and fusion partners are left off. Residues count along the entry.
UniProt P35968, residues 20-1356: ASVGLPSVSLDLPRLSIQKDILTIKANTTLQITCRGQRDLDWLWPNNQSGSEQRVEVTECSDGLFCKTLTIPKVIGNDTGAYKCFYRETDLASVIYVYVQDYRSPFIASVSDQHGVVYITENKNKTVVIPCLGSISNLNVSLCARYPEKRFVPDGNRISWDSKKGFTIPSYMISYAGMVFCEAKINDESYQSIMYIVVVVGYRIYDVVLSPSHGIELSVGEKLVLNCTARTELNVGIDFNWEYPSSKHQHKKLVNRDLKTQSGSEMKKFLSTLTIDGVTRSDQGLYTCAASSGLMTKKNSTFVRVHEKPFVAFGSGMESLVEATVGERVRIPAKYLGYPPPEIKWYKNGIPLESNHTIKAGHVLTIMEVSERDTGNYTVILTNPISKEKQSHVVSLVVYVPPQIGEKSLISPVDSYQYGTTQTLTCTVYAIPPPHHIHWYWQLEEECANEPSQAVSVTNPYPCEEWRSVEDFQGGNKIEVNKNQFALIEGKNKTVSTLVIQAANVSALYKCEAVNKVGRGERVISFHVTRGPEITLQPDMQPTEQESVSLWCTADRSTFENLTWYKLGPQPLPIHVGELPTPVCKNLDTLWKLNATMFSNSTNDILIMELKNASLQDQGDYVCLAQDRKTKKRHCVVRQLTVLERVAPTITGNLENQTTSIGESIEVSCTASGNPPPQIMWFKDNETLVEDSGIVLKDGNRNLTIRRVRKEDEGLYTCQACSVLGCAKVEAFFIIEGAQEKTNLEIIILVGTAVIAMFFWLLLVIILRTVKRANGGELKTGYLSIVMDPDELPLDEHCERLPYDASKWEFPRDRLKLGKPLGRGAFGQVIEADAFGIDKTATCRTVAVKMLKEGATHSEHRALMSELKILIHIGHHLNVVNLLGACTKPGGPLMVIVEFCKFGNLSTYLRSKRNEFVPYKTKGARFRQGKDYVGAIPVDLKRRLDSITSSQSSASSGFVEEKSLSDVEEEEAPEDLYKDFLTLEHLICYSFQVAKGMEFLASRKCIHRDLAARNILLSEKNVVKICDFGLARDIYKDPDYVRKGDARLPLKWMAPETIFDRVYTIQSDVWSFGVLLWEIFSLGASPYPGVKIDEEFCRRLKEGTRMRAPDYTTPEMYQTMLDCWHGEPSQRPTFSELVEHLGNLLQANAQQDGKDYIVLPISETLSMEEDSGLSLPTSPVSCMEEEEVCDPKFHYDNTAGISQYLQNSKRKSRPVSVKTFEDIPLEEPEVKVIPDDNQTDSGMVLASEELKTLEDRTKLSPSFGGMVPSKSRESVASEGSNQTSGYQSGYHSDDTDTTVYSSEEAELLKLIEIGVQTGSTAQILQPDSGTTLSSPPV
UniProt P37288: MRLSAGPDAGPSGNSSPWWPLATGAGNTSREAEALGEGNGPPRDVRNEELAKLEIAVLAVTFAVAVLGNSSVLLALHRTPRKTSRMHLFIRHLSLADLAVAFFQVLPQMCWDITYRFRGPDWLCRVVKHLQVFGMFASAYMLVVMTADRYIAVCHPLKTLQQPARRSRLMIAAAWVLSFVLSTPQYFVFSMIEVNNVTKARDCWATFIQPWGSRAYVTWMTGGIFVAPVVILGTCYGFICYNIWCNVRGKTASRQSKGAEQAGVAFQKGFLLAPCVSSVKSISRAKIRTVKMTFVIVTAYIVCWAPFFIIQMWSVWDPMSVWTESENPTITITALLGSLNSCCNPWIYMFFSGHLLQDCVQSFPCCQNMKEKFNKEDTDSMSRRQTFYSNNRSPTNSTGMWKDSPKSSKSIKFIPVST
UniProt P30559: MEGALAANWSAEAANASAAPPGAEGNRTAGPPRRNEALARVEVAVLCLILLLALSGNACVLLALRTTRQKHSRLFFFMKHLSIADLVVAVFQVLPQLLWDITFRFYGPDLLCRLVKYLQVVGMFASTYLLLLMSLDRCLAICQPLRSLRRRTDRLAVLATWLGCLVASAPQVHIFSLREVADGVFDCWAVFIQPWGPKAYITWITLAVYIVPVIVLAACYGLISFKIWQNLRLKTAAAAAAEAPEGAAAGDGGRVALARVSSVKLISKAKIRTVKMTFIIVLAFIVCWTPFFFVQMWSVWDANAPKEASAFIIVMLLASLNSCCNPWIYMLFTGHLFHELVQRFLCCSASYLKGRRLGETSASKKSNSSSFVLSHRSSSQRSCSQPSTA

Experiment [3] addresses T2, Double minute 4 protein (human (endogenous in placenta)) (UniProt O15151).
T2 sequence: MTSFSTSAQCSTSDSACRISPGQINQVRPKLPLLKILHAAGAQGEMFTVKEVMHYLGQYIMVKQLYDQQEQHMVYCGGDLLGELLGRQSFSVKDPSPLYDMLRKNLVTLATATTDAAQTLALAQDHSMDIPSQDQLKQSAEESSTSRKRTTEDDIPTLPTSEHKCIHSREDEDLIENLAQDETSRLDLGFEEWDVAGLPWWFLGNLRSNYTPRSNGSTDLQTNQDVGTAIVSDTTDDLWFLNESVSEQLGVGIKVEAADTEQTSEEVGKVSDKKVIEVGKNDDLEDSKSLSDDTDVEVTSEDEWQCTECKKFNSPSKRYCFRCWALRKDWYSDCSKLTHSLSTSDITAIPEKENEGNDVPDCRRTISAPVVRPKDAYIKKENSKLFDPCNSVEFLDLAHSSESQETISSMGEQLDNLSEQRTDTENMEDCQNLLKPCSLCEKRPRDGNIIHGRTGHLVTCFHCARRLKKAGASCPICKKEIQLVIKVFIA

In paper PMC11003095 one finds binding data, which are given here for 2 substances.

No constants are given. Whether binding was seen depends on the method and setting. In cells and extracts the contact can be indirect. Some results given as binding are weak or reduced against the parent protein; the word gives no strength.

As for “vasopressin V1aR receptor (from UniProt P37288 1-418)”, the binding entry in experiment [1] is “no binding”; in experiment [2], “binds”; in experiment [3], “binds”.

With “oxytocin receptor (from UniProt P30559 1-389)”, the binding result is “no binding” in experiment [1], “binds” in experiment [2] and “binds” in experiment [3].
